From the supplement of paper PMC12823440, “Inhibitors supercharge kinase turnover through native proteolytic circuits” (Nature, 2025)
Counter-ions that a name gives are not always drawn. Some of the results follow. The calls rarely recur for the same compound in another form.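 Kinases, fused to nanoluciferase, were expressed in K562 cells; luminescence was measured every 4 h from 2 to 18 h as percent of control (DMSO = 100%, positive control = 0%). A time point is decreased if signal falls significantly (2 sigma). Hits were called by the authors by a rule that is not shown; the count of time points alone does not decide it.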

Sequences of proteins named here, by UniProt entry; tags and fusion partners are left off. A change or cut given only in a name is not applied to a line headed by its entry.
UniProt P50613: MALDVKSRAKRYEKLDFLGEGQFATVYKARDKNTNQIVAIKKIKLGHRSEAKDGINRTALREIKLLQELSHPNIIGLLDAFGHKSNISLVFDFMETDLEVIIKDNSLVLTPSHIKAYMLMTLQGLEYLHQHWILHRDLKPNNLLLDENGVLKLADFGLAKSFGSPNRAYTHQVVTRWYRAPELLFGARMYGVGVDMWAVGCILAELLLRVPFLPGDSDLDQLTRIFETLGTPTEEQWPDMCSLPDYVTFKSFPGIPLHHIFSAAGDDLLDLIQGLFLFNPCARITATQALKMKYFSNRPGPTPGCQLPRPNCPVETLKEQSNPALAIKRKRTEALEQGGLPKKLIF
UniProt P50750, whole entry: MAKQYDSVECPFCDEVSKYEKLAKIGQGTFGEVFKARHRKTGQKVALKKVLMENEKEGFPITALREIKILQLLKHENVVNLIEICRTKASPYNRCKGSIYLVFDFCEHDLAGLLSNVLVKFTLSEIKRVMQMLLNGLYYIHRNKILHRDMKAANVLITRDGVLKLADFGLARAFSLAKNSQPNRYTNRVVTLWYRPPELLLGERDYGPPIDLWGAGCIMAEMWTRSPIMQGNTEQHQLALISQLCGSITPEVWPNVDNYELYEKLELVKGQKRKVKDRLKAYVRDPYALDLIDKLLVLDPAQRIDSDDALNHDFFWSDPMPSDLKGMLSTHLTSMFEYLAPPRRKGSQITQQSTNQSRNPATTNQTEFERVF
UniProt O96017, whole entry: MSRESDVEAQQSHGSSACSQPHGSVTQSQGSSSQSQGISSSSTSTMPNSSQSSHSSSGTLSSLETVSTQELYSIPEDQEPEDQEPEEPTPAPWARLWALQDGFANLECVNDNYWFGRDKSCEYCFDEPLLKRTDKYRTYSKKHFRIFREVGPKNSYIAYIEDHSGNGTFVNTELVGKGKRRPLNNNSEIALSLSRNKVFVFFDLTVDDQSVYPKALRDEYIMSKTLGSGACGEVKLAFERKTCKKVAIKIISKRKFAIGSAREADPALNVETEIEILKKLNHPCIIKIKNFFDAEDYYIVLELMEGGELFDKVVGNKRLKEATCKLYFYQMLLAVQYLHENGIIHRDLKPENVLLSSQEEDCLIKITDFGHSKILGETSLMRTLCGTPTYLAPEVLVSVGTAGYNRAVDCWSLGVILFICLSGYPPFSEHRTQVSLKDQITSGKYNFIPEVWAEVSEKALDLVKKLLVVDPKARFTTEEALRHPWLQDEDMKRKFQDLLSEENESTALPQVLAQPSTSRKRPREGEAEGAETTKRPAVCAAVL
UniProt P07333, whole entry: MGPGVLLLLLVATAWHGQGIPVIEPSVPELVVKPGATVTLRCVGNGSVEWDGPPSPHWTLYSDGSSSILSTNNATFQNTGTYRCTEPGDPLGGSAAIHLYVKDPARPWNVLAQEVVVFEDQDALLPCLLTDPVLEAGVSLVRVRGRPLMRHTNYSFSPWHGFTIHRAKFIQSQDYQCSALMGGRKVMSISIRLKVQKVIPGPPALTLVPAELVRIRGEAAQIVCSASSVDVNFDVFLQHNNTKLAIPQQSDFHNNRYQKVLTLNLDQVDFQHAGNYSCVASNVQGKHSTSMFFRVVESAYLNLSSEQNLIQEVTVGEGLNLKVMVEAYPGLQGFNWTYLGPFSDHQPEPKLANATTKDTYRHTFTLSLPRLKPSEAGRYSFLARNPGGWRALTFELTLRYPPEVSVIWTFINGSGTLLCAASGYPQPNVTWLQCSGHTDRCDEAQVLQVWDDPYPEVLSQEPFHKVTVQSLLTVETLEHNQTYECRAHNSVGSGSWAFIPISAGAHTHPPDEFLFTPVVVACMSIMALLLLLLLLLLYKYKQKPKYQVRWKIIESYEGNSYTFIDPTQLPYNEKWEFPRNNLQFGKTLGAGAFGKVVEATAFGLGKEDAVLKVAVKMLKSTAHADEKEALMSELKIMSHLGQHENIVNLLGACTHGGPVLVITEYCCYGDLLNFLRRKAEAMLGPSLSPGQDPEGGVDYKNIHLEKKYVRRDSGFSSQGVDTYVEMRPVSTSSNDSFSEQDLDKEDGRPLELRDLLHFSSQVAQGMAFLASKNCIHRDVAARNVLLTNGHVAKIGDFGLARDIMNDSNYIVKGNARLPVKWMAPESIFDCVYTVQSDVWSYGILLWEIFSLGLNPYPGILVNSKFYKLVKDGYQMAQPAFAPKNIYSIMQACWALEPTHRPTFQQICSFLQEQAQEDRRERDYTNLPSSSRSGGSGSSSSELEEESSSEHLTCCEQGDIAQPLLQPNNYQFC
UniProt P41240: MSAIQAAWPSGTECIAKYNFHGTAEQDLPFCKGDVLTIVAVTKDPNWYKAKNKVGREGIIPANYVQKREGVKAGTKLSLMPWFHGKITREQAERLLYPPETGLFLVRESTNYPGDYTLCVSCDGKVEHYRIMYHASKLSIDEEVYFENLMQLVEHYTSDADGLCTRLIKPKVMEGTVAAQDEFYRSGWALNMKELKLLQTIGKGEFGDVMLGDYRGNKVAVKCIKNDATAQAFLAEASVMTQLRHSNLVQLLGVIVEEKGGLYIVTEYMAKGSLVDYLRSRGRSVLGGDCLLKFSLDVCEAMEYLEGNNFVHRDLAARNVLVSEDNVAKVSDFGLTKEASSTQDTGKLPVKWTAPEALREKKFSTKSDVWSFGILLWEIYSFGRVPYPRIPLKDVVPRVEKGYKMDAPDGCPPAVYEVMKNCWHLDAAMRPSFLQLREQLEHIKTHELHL
UniProt P48729: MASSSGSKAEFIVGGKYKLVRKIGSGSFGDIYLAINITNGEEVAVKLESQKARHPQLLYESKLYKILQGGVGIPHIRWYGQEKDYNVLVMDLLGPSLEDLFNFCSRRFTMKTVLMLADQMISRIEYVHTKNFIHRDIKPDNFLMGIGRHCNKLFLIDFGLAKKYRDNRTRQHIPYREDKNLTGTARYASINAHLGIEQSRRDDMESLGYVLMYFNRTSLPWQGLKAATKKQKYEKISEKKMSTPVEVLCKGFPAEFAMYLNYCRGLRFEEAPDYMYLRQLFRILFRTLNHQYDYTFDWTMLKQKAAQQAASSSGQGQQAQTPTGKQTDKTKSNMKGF
UniProt P48730: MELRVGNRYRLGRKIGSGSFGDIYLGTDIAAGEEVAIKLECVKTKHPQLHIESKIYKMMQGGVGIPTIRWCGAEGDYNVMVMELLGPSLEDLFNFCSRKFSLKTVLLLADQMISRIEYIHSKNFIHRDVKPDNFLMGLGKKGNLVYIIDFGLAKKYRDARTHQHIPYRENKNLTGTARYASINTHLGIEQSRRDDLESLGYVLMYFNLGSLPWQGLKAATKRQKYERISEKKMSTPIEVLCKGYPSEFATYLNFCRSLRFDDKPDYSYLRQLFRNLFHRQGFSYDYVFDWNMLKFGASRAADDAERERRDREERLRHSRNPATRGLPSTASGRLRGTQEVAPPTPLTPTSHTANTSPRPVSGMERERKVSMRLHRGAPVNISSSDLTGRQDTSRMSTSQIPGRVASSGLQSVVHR
UniProt Q08345: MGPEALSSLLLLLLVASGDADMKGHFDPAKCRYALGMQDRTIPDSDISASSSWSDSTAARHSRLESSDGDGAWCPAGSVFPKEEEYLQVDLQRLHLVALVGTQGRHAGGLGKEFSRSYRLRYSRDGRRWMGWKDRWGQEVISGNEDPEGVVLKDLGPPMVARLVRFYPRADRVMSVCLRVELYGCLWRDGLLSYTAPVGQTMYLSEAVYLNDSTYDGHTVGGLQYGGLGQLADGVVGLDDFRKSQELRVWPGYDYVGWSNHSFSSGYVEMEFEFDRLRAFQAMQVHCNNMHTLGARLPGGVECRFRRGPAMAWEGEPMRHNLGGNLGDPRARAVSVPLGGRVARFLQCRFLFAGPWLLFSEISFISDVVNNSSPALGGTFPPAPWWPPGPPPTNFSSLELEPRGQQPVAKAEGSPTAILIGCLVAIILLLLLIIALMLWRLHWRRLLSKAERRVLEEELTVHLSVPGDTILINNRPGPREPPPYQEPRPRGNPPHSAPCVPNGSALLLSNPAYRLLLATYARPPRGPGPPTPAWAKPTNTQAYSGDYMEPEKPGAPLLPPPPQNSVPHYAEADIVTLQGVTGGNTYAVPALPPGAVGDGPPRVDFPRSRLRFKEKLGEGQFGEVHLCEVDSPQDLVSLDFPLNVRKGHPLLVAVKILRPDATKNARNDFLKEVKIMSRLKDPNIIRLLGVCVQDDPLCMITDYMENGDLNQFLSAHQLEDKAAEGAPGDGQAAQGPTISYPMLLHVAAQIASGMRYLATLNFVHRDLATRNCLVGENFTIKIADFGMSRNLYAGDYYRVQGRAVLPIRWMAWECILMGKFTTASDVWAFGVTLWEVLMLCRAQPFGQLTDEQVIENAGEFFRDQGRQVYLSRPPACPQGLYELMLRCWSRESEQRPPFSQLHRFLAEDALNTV
UniProt Q9Y463, whole entry, looked up: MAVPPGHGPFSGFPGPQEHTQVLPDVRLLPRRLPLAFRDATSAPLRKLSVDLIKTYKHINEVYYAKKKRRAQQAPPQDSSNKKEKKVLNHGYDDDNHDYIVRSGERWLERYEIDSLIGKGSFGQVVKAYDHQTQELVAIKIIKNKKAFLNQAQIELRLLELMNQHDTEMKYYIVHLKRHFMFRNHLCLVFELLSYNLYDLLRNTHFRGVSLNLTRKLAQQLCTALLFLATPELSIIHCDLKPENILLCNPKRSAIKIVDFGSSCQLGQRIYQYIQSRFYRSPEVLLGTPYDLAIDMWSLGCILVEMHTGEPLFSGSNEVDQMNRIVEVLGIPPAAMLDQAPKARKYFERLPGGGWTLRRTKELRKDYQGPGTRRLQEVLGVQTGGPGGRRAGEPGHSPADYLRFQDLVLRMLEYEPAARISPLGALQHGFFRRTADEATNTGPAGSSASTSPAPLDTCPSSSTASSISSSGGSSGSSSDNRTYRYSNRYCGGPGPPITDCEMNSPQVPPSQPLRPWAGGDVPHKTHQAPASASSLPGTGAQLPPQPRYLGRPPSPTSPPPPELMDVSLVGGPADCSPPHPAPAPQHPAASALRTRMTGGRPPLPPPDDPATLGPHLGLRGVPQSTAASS
UniProt Q92630: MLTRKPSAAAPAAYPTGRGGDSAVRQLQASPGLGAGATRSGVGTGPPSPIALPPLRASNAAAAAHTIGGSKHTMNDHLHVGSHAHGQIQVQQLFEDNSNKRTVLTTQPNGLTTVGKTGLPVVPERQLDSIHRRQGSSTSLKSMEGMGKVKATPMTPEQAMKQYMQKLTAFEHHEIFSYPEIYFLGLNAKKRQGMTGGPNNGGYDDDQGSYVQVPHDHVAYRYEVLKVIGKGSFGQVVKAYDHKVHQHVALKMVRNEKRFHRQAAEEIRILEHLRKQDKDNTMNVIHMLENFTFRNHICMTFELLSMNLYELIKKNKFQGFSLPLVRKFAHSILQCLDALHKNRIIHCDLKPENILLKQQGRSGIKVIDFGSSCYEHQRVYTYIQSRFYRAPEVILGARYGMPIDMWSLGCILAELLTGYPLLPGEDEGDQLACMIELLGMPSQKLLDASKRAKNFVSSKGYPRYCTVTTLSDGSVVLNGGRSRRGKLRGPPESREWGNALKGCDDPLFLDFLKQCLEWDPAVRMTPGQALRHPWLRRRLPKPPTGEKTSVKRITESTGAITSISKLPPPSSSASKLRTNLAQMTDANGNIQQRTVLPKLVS
UniProt P29317, whole entry: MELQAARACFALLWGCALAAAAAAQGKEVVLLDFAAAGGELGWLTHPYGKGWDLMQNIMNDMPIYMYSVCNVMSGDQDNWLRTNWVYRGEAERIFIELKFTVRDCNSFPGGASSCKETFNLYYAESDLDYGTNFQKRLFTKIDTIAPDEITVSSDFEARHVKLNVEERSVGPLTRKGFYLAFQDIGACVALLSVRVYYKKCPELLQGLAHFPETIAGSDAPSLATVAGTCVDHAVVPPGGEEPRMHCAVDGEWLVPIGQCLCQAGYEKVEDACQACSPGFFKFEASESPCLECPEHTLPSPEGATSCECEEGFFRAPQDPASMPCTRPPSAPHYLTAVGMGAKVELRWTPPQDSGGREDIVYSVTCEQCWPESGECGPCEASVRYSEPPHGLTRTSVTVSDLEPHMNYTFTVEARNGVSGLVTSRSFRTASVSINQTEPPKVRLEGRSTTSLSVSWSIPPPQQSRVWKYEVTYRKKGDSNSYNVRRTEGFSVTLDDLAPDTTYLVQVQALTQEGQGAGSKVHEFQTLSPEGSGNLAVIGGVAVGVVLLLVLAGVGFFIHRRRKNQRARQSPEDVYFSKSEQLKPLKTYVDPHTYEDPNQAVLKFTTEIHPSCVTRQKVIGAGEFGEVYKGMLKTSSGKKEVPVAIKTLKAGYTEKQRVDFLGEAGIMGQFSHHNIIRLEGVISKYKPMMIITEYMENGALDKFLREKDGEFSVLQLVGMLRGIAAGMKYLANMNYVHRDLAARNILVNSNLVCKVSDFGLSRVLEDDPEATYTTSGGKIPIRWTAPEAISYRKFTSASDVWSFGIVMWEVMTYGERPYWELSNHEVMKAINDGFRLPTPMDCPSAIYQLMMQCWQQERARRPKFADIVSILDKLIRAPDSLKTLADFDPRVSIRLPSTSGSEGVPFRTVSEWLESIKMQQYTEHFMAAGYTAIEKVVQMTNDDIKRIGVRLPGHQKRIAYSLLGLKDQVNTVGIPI

Experiments:
Assay in all cases: kinase-Nluc reporter destabilization hit call (1 = scored as downregulated) (binary); higher = compound decreases kinase abundance
Conditions in all cases: K562; 2-18 h
CDK7 = CDK7 (UniProt P50613)
CDK9 = CDK9 (UniProt P50750)
CHEK2 = CHEK2 (UniProt O96017)
CSF1R = CSF1R (UniProt P07333)
CSK = CSK (UniProt P41240)
CSNK1A1 = CSNK1A1 (UniProt P48729)
CSNK1D = CSNK1D (UniProt P48730)
DDR1 = DDR1 (UniProt Q08345)
DYRK1B = DYRK1B (UniProt Q9Y463)
DYRK2 = DYRK2 (UniProt Q92630)
EGFR = EGFR (UniProt P00533)
EGFR_G719S = EGFR_G719S (UniProt P00533)
EGFR_G719S_T790M = EGFR_G719S_T790M (UniProt P00533)
EGFR_L718V = EGFR_L718V (UniProt P00533)
EGFR_L858R = EGFR_L858R (UniProt P00533)
EGFR_L861Q = EGFR_L861Q (UniProt P00533)
EGFR_T790M = EGFR_T790M (UniProt P00533)
EPHA2 = EPHA2 (UniProt P29317)
ERBB3 = ERBB3 (UniProt P21860)
[1] = target: ERBB4_R711C (clone: ERBB4_mut) (UniProt Q15303)

Measured: kinase-Nluc reporter destabilization hit call

COc1ccc2c(c1)C[C@H](C(=O)Nc1ccc(-c3cn[nH]c3)cc1OCCN(C)C)CO2 [Chroman 1] (10 µM)
inactive: CDK7 = 0 | CDK9 = 0 | CHEK2 = 0 | CSF1R 0 | CSK 0 | CSNK1A1 = 0 | CSNK1D 0 | DDR1 = 0 | DYRK1B 0 | DYRK2 = 0 | EGFR 0 | EGFR_G719S 0 | EGFR_G719S_T790M 0 | EGFR_L718V 0 | EGFR_L858R 0 | EGFR_L861Q 0 | EGFR_T790M 0 | EPHA2 = 0 | ERBB3 = 0 | [1] 0

CN(C)CCCNc1ccn2ncc(-c3ccc4c(c3)OCO4)c2n1 (10 µM)
inactive: CDK7 = 0 | CDK9 = 0 | CHEK2 = 0 | CSF1R 0 | CSK 0 | CSNK1A1 = 0 | CSNK1D 0 | DDR1 = 0 | DYRK1B 0 | DYRK2 = 0 | EGFR 0 | EGFR_G719S 0 | EGFR_G719S_T790M 0 | EGFR_L718V 0 | EGFR_L858R 0 | EGFR_L861Q 0 | EGFR_T790M 0 | EPHA2 = 0 | ERBB3 = 0 | [1] 0

COc1cc(Nc2nc3ccccc3nc2NS(=O)(=O)c2ccc(NC(=O)c3ccc(C)c(OC)c3)cc2)cc(OC)c1 (10 µM)
inactive: CDK7 = 0 | CDK9 = 0 | CHEK2 = 0 | CSF1R 0 | CSK 0 | CSNK1A1 = 0 | CSNK1D 0 | DDR1 = 0 | DYRK1B 0 | DYRK2 = 0 | EGFR 0 | EGFR_G719S 0 | EGFR_G719S_T790M 0 | EGFR_L718V 0 | EGFR_L858R 0 | EGFR_L861Q 0 | EGFR_T790M 0 | EPHA2 = 0 | ERBB3 = 0 | [1] 0

Cc1c(Br)c(Br)c2c3c1nc(N1CCNCC1)n3CCC2 [SEL120-34A (monohydrochloride)] (2.5 µM)
inactive: CDK7 = 0 | CDK9 = 0 | CHEK2 = 0 | CSF1R 0 | CSK 0 | CSNK1A1 = 0 | CSNK1D 0 | DDR1 = 0 | DYRK1B 0 | DYRK2 = 0 | EGFR 0 | EGFR_G719S 0 | EGFR_G719S_T790M 0 | EGFR_L718V 0 | EGFR_L858R 0 | EGFR_L861Q 0 | EGFR_T790M 0 | EPHA2 = 0 | ERBB3 = 0 | [1] 0

CC(C)(O)c1cc(Nc2cc(Oc3cn(C4CC4)nc3C3CCOCC3)ccn2)ccn1 (10 µM)
inactive: CDK7 = 0 | CDK9 = 0 | CHEK2 = 0 | CSF1R 0 | CSK 0 | CSNK1A1 = 0 | CSNK1D 0 | DDR1 = 0 | DYRK1B 0 | DYRK2 = 0 | EGFR 0 | EGFR_G719S 0 | EGFR_G719S_T790M 0 | EGFR_L718V 0 | EGFR_L858R 0 | EGFR_L861Q 0 | EGFR_T790M 0 | EPHA2 = 0 | ERBB3 = 0 | [1] 0

C[C@H]1CNC(=O)c2cnn3ccc(nc23)N[C@H](C)c2cc(F)ccc2O1 [Repotrectinib] (2.5 µM)
inactive: CDK7 = 0 | CDK9 = 0 | CHEK2 = 0 | CSF1R 0 | CSK 0 | CSNK1A1 = 0 | CSNK1D 0 | DDR1 = 0 | DYRK1B 0 | DYRK2 = 0 | EGFR 0 | EGFR_G719S 0 | EGFR_G719S_T790M 0 | EGFR_L718V 0 | EGFR_L858R 0 | EGFR_L861Q 0 | EGFR_T790M 0 | EPHA2 = 0 | ERBB3 = 0 | [1] 0

O=C1c2c(O)cc(O)cc2O[C@H](c2cc(O)c(O)c(O)c2)[C@H]1O [Dihydromyricetin] (10 µM)
inactive: CDK7 = 0 | CDK9 = 0 | CHEK2 = 0 | CSF1R 0 | CSK 0 | CSNK1A1 = 0 | CSNK1D 0 | DDR1 = 0 | DYRK1B 0 | DYRK2 = 0 | EGFR 0 | EGFR_G719S 0 | EGFR_G719S_T790M 0 | EGFR_L718V 0 | EGFR_L858R 0 | EGFR_L861Q 0 | EGFR_T790M 0 | EPHA2 = 0 | ERBB3 = 0 | [1] 0

Cn1cc(-c2ccc3ncc(Cc4ccc5ncccc5c4)n3n2)cn1 (10 µM)
inactive: CDK7 = 0 | CDK9 = 0 | CHEK2 = 0 | CSF1R 0 | CSK 0 | CSNK1A1 = 0 | CSNK1D 0 | DDR1 = 0 | DYRK1B 0 | DYRK2 = 0 | EGFR 0 | EGFR_G719S 0 | EGFR_G719S_T790M 0 | EGFR_L718V 0 | EGFR_L858R 0 | EGFR_L861Q 0 | EGFR_T790M 0 | EPHA2 = 0 | ERBB3 = 0 | [1] 0

N#Cc1c[nH]c2ccc(-c3ccc(-c4c(O)cccc4O)cc3)cc12 (10 µM)
inactive: CDK7 = 0 | CDK9 = 0 | CHEK2 = 0 | CSF1R 0 | CSK 0 | CSNK1A1 = 0 | CSNK1D 0 | DDR1 = 0 | DYRK1B 0 | DYRK2 = 0 | EGFR 0 | EGFR_G719S 0 | EGFR_G719S_T790M 0 | EGFR_L718V 0 | EGFR_L858R 0 | EGFR_L861Q 0 | EGFR_T790M 0 | EPHA2 = 0 | ERBB3 = 0 | [1] 0

CCS(=O)(=O)c1ccc(Oc2cc(O[C@@H](C)CO)cc(C(=O)Nc3ccn(C)n3)c2)cn1 (10 µM)
inactive: CDK7 = 0 | CDK9 = 0 | CHEK2 = 0 | CSF1R 0 | CSK 0 | CSNK1A1 = 0 | CSNK1D 0 | DDR1 = 0 | DYRK1B 0 | DYRK2 = 0 | EGFR 0 | EGFR_G719S 0 | EGFR_G719S_T790M 0 | EGFR_L718V 0 | EGFR_L858R 0 | EGFR_L861Q 0 | EGFR_T790M 0 | EPHA2 = 0 | ERBB3 = 0 | [1] 0

Cc1cc([N+](=O)[O-])c(NS(=O)(=O)c2cccc(C(=O)O)c2)cc1-c1cccnc1 [Alofanib] (10 µM)
inactive: CDK7 = 0 | CDK9 = 0 | CHEK2 = 0 | CSF1R 0 | CSK 0 | CSNK1A1 = 0 | CSNK1D 0 | DDR1 = 0 | DYRK1B 0 | DYRK2 = 0 | EGFR 0 | EGFR_G719S 0 | EGFR_G719S_T790M 0 | EGFR_L718V 0 | EGFR_L858R 0 | EGFR_L861Q 0 | EGFR_T790M 0 | EPHA2 = 0 | ERBB3 = 0 | [1] 0

C[C@@H](N)COc1ccc(-c2cnc3ccc(N[C@H](C)c4cccc(F)c4)nn23)cc1 [Taletrectinib] (2.5 µM)
inactive: CDK7 = 0 | CDK9 = 0 | CHEK2 = 0 | CSF1R 0 | CSK 0 | CSNK1A1 = 0 | CSNK1D 0 | DDR1 = 0 | DYRK1B 0 | DYRK2 = 0 | EGFR 0 | EGFR_G719S 0 | EGFR_G719S_T790M 0 | EGFR_L718V 0 | EGFR_L858R 0 | EGFR_L861Q 0 | EGFR_T790M 0 | EPHA2 = 0 | ERBB3 = 0 | [1] 0

C=CC(=O)N1CCN(c2nc(OC[C@@H]3CCCN3C)nc3c2CCN(c2cccc4cccc(C)c24)C3)C[C@@H]1CC#N (2.5 µM)
inactive: CDK7 = 0 | CDK9 = 0 | CHEK2 = 0 | CSF1R 0 | CSK 0 | CSNK1A1 = 0 | CSNK1D 0 | DDR1 = 0 | DYRK1B 0 | DYRK2 = 0 | EGFR 0 | EGFR_G719S 0 | EGFR_G719S_T790M 0 | EGFR_L718V 0 | EGFR_L858R 0 | EGFR_L861Q 0 | EGFR_T790M 0 | EPHA2 = 0 | ERBB3 = 0 | [1] 0

COc1cc(OC)c(/C=C/S(=O)(=O)Cc2ccc(OC)c(NCC(=O)O)c2)c(OC)c1 [Rigosertib (sodium)] (10 µM)
inactive: CDK7 = 0 | CDK9 = 0 | CHEK2 = 0 | CSF1R 0 | CSK 0 | CSNK1A1 = 0 | CSNK1D 0 | DDR1 = 0 | DYRK1B 0 | DYRK2 = 0 | EGFR 0 | EGFR_G719S 0 | EGFR_G719S_T790M 0 | EGFR_L718V 0 | EGFR_L858R 0 | EGFR_L861Q 0 | EGFR_T790M 0 | EPHA2 = 0 | ERBB3 = 0 | [1] 0

Cc1cccc(-c2[nH]c(C(C)(C)C)nc2-c2ccc3c(c2)OCO3)n1 (2.5 µM)
inactive: CDK7 = 0 | CDK9 = 0 | CHEK2 = 0 | CSF1R 0 | CSK 0 | CSNK1A1 = 0 | CSNK1D 0 | DDR1 = 0 | DYRK1B 0 | DYRK2 = 0 | EGFR 0 | EGFR_G719S 0 | EGFR_G719S_T790M 0 | EGFR_L718V 0 | EGFR_L858R 0 | EGFR_L861Q 0 | EGFR_T790M 0 | EPHA2 = 0 | ERBB3 = 0 | [1] 0

O=S(=O)(c1cccc2c(Cl)cccc12)N1CCCNCC1 (10 µM)
inactive: CDK7 = 0 | CDK9 = 0 | CHEK2 = 0 | CSF1R 0 | CSK 0 | CSNK1A1 = 0 | CSNK1D 0 | DDR1 = 0 | DYRK1B 0 | DYRK2 = 0 | EGFR 0 | EGFR_G719S 0 | EGFR_G719S_T790M 0 | EGFR_L718V 0 | EGFR_L858R 0 | EGFR_L861Q 0 | EGFR_T790M 0 | EPHA2 = 0 | ERBB3 = 0 | [1] 0

O=C1C(=Cc2ccc(O)c(O)c2)Oc2ccccc21 (2.5 µM)
inactive: CDK7 = 0 | CDK9 = 0 | CHEK2 = 0 | CSF1R 0 | CSK 0 | CSNK1A1 = 0 | CSNK1D 0 | DDR1 = 0 | DYRK1B 0 | DYRK2 = 0 | EGFR 0 | EGFR_G719S 0 | EGFR_G719S_T790M 0 | EGFR_L718V 0 | EGFR_L858R 0 | EGFR_L861Q 0 | EGFR_T790M 0 | EPHA2 = 0 | ERBB3 = 0 | [1] 0

C=CCN(/C=C1/C(=O)O[C@H](COC)[C@@]2(C)C1=C(O)C(=O)C1=C2[C@H](OC(C)=O)C[C@]2(C)C(=O)CC[C@@H]12)CC=C [Sonolisib] (2.5 µM)
inactive: CDK7 = 0 | CDK9 = 0 | CHEK2 = 0 | CSF1R 0 | CSK 0 | CSNK1A1 = 0 | CSNK1D 0 | DDR1 = 0 | DYRK1B 0 | DYRK2 = 0 | EGFR 0 | EGFR_G719S 0 | EGFR_G719S_T790M 0 | EGFR_L718V 0 | EGFR_L858R 0 | EGFR_L861Q 0 | EGFR_T790M 0 | EPHA2 = 0 | ERBB3 = 0 | [1] 0
